At least one compound was matched to its structure with a doubt left.
What was measured:
mouse CB1R = molecular target: T1, mouse CB1R (Mus musculus, UniProt P47746); test: [35S]GTPγS binding assay in mouse cerebellum membranes; assay type: biochemical; conditions: compared with compound 2
T1 construct: membranes (10 μg protein) from either ICR mouse cerebellum mice; from tissue; host or cells: cerebellum membranes of ICR mice

The chains behind the UniProt entries cited, without tags or fusion partners.
UniProt P47746, whole entry: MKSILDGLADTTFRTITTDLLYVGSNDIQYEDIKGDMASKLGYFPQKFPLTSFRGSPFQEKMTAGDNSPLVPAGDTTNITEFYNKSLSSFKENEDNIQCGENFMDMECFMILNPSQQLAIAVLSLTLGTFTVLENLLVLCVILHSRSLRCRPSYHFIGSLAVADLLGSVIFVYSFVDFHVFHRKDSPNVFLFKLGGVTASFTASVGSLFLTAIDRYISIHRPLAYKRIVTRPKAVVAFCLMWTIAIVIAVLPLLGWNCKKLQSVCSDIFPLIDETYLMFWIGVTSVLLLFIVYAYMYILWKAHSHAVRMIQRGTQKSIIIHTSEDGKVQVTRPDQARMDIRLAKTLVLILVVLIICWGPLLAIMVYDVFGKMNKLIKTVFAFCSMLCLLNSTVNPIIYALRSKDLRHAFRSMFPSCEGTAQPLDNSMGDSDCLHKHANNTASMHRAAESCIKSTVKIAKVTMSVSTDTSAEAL

hCB1R = hCB1R (Homo sapiens, UniProt P21554); test: Intrinsic activity: basal [35S]GTPγS binding in the absence of CP55,940; assay type: biochemical; conditions: up to 10 μM

Question: For O=C(Nc1ccc(Cl)cc1)N[C@@H]1C[C@H]1c1ccccc1 (racemic) [Compound 15, trans-1-(4-Chlorophenyl)-3-(2-phenylcyclopropyl)urea], which “activity in [35S]GTPγS binding assay against mouse CB1R (in words)” value (mouse CB1R) is on record?
Answer: Its value is “weak activities”.

Question: For O=C(Nc1ccc(Cl)cc1)Nc1cncc(-c2ccccc2)c1 [Compound 9, 1-(4-Chlorophenyl)-3-(5-phenylpyridin-3-yl)urea], which “inverse agonism (in words)” value (hCB1R) is on record?
Answer: The value was “some degree of inverse agonism”.

Question: O=C(Nc1ccc(Cl)cc1)Nc1cc(-c2ccccc2)ccn1 [Compound 7, 1-(4-Chlorophenyl)-3-(4-phenylpyridin-2-yl)urea] was tested. Which “activity in [35S]GTPγS binding assay against mouse CB1R (in words)” value (mouse CB1R) did it give?
Answer: Its value is “no activities”.

From US20220332695A1, “UREA DERIVATIVES AS CB1 ALLOSTERIC MODULATORS” (RTI INTERNATIONAL, priority 2019, published 2022)
